This note sets out measurements from paper PMC12767022.

These are yes or no findings as the source states them, for the method shown. Binding calls can cover weak binding; strength is not graded here. Where a sequence is shown, tags or fusion partners need not be part of it.

For test [1], the target named is GST‐ETS6, glutathione S‐transferase‐tagged ETS6 (Metarhizium robertsii). As to the kind of experiment: pull-down; called IP or Co‐IP in the paper; purified GST‐, MBP‐ and His‐tagged proteins from E. coli; blots of input and output; both purified.
Test [2] addresses GST‐ETS1, glutathione S‐transferase‐tagged ETS1 (Metarhizium robertsii). The test is described as above.

B1: MBP‐Spz, maltose‐binding protein‐tagged Spz (ligand, UniProt P48607 26-326)
chain: KEYERIIKELFTITNDEGVVLFNTSADSAPFMPIPTQHDDPTQKQKQNQNQSPIPETNRHYHQYHSLIQPDQYFKVQRSPNGKLNLVFNDTFVSLQRTDTEVQSEQPIPPRHPSDTFVFPDSPIAKYRPPQSPARPLRNDTKEHNPCAKDESQHLRNFCTNVDDYPDLSGLTHKLKNNFAKFFSNDLQPTDVSSRVGGSDERFLCRSIRKLVYPKKGLRADDTWQLIVNNDEYKQAIQIEECEGADQPCDFAANFPQSYNPICKQHYTQQTLASIKSDGELDVVQNSFKIPSCCKCALKTG
In the case of B1, the binding entry in test [1] and in test [2] was “binds” each time.
